In patent US7857804B2, “Use of Bcl inhibitors for the prevention of fibroproliferative reclosure of dilated blood vessels and other iatrogenic fibroproliferative disorders” (priority 2006, dated 2010):
At least one structure is not confirmed: it was looked up by name or label, or the drawing left a doubt.

Test system: Human lesion cells
Assay: MTT assay for sensitivity to fas-induced apoptosis in human lesion cells
Assay type: cell-based
Settings: 2.5-5 μM
Method: Cells for study were derived from human carotid artery atherosclerotic lesions, by published methods. Additionally, cell lines were subcloned and tested for sensitivity to fas ligation. In the present studies, clonal lines with known resistance to fas ligation were used.
Induction of apoptosis was achieved by reduction of serum concentration from 10% to 1% FBS for 24 hours prior to adding an activating antibody to fas (CH11, Upstate Biotechnology) at a typical concentration of 50-500 ng/ml. Typically 24-48 hours after fas ligation by CH11, cell survival was determined by measuring metabolic activity by the MTT method.
FIG. 3 depicts the effect of 2-methoxy-antimycin A3 (AA3) and gossypol on the sensitivity to apoptosis in human lesion cells. Human lesion cells were plated and treated as above for 24 hours with the specified concentrations of drug. Fas ligation was initiated with 50 ng/ml of activating antibody CH11 and 24 hours later the number of cell surviving was measured by their metabolism of MTT. Bars are mean±s.d. (n=4 per group). A reduction in MTT levels indicates cell death.
FIG. 4 depicts the effect of HA14-1 and 2,3-DCPE on sensitivity to fas-induced apoptosis. […] Fas ligation was initiated with 50 ng/ml of activating antibody CH11 and 24 hours later the number of cell surviving was measured by their metabolism of MTT. […]

**Q.** For `Cc1cc2c(C(C)C)c(O)c(O)c(C=O)c2c(O)c1-c1c(C)cc2c(C(C)C)c(O)c(O)c(C=O)c2c1O` [Gossypol, 2,2′-bis(8-Formyl-1,6,7-trihydroxy-5-isopropyl-3-methylnaphthalene)], which “fas-independent effect on survival” value is on record?
**A.** The value was “significant fas-independent effect on survival”.
